For 1 substance, step yield results are on record in US6958384 (dated 2005).

This data set can be described thus: peptide synthesis. The settings on record: coupling step.

On to Boc-(γ-ACPC)4-OBn, for which the step yield was determined as 53%.
